In the supplement of paper PMC9877034:
Counter-ions that a name gives are not always drawn. Whole data set: some 1,000 compounds, median “cFRET/donor change relative to DMSO, normalised to beta-lapachone positive control (supercomplex I-IV assembly)” near 0.18, cut for the lowest 2% near -1. The list shows a part of the results.

test system: C2C12 (NDUFB8-AcGFP / COX8A-DsRed-Monomer FRET reporter); test: cFRET/donor change relative to DMSO, normalised to beta-lapachone positive control (supercomplex I-IV assembly) (fraction of beta-lapachone effect); higher = more respiratory supercomplex assembly; settings: 40 µM; 24 h
Procedure: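 Cells were treated with 40 uM compound for 24 h and imaged on an IN Cell Analyzer 6000. Corrected FRET was divided by donor signal (cFRET/donor) and measured in two replicate experiments. The score is (mean cFRET/donor of compound - mean DMSO) / (mean beta-lapachone 40 uM - mean DMSO). Compounds flagged for prominent cell death, abnormal morphology or decreased cell number were excluded.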

Going from CCCN(CC1CC1)c1nc(C)nc(Nc2c(Cl)cc(Cl)cc2Cl)c1Cl to Cc1cc(C(C)(C)C)cc(C)c1CC1=NCCN1 [Xylometazoline hydrochloride], the cFRET/donor change falls from 0.169 to 0.077.

First: CCCCCC(O)CCCC(=O)O (stereo not drawn) [5-hydroxydecanoic acid sodium]
Second: CCCCCCNC(=O)n1cc(F)c(=O)[nH]c1=O [Carmofur]
The cFRET/donor change of the first is lower: 0.0238 for the first, 0.568 for the second.

First: COc1cc(N)c(Cl)cc1C(=O)OCCN1CCCCC1
Second: COc1ccc(Cl)cc1C(=O)NCCc1ccc(S(=O)(=O)NC(=O)NC2CCCCC2)cc1 [Glybenclamide]
The cFRET/donor change of the first is lower: 0.0941 for the first, 0.534 for the second.

Going from NC(N)=NC(N)=Nc1ccccc1 [1-Phenylbiguanide] to NC(=O)c1ccccc1 [Benzamide], the cFRET/donor change falls from 0.314 to 0.0222.

Going from NCCc1ccc(O)c(O)c1 [Dopamine hydrochloride] to O=c1[nH]ccc2c(O)cccc12 [1,5-Isoquinolinediol], the cFRET/donor change falls from 0.145 to 0.009.

Going from C[C@H](CS)C(=O)N1CCC[C@H]1C(=O)O [Captopril] to NC(C(=O)O)C(O)C(=O)O (racemic) [DL-threo-beta-hydroxyaspartic acid], the cFRET/donor change falls from -0.0367 to -0.112.

First: Cc1c(-c2ccc(-c3ccccc3F)cc2)nc2ccc(F)cc2c1C(=O)O [Brequinar sodium salt hydrate]
Second: Cn1cc(C(F)(F)F)nc1-c1ccc(OCC(O)CNCCOc2ccc(O)c(C(N)=O)c2)cc1 (stereo not drawn)
The cFRET/donor change of the first is lower: 0.431 for the first, 1.13 for the second.

Compared with O=c1ccn([C@@H]2O[C@H](COP(=O)(O)OP(=O)(O)O)[C@@H](O)[C@H]2O)c(=O)[nH]1 [Uridine 5'-diphosphate sodium], O=P(O)(O)C(O)(Cn1ccnc1)P(=O)(O)O [Zoledronic acid monohydrate] is higher in cFRET/donor change: 0.202 for the first, 0.239 for the second.

First: CC(C(O)c1ccc(O)cc1)N1CCC(Cc2ccccc2)CC1 (stereo not drawn) [Ifenprodil tartrate]
Second: COc1cc2nc(N3CCN(C(=O)C4COc5ccccc5O4)CC3)nc(N)c2cc1OC (stereo not drawn) [Doxazosin mesylate]
The cFRET/donor change of the first is higher: 0.529 for the first, 0.33 for the second.

Going from O=C(O)C1=CC(=C(c2ccc(O)c(C(=O)O)c2)c2ccc(O)c(C(=O)O)c2)C=CC1=O [Aurintricarboxylic acid] to O=C(c1cc(O)c(O)c([N+](=O)[O-])c1)c1ccccc1F, the cFRET/donor change falls from -0.223 to -0.361.

First: CCCOc1ccccc1-c1nc2[nH]nnc2c(=O)[nH]1 [Zaprinast]
Second: CCN(CC)CCOCCOC(=O)C1(c2ccccc2)CCCC1 [Carbetapentane citrate]
The cFRET/donor change of the first is higher: 0.225 for the first, 0.0628 for the second.

For CC#C[C@]1(O)CC[C@H]2[C@@H]3CCC4=CC(=O)CCC4=C3[C@@H](c3ccc(N(C)C)cc3)C[C@@]21C [Mifepristone], the cFRET/donor change was -0.653.
